No constants are given. Whether binding was seen depends on the method and setting.
Target: Fos with C-terminal GST-E-coil tag (control feature on the array) (human) (UniProt P01100)
Test: SPR; NAPPA-SPRi: p53 proteins with GST-E-coil translated in situ and captured by K-coil peptide on a gold slide; purified full-length MDM2 20 μg/mL injected at 3 μL/s; running buffer 1x PBS, 1% Tween 20; 1:1 fit with Scrubber 2.0; apparent constants; only the binder purified

Chains of the proteins cited; added tags and fusions are not shown.
UniProt P01100: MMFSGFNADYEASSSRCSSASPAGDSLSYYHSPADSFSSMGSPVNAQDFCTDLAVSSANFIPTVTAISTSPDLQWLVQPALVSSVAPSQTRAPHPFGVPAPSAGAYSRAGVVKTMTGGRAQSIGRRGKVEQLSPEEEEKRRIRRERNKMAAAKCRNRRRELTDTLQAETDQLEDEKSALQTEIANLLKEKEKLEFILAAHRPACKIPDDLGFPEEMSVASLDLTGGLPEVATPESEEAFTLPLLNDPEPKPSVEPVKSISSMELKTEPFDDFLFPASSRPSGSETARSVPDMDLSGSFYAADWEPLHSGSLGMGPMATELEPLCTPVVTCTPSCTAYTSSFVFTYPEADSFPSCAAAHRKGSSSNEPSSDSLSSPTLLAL

MDM2, full-length purified recombinant (from UniProt Q00987 1-491)
binding: no binding (tested: 20 μg/mL)

Source: publication PMC8744954
